From patent US20060210520A1, “Macadamia lipid based surfactants and derivatives and process for preparing same” (Finetex, Inc., priority 2005, published 2006)

Columns and labels:
[1] = Comparative conditioning properties: wet and dry comb, flyaway, rating 1 best, 10 poor (Example 38); conditions: 2.5% active conditioner in conditioner base, hair tresses
[2] = Foam test of Macadamia oil-based surfactants (Example 30); type: physicochemical; conditions: 0.1 gram surfactant in 100 ml. water, 10 strokes; for Initial height (0 minutes) / Final height (5 minutes): foam height; for Final height (5 minutes): after 5 minutes

Compound | Dry Comb [1] | Wet Comb [1] | Durability of foam [2] | Nature of foam [2] | Initial height (0 minutes) [2] | Final height (5 minutes) [2]
CCCCCCCCCCCCCCCC[N+](C)(C)C.[Cl-] [Cetrimonium Chloride] | 3 | 7 | – | – | – | –
CCCCCCCCCCCCCCCCCC[N+](C)(C)Cc1ccccc1.[Cl-] [Stearylalkonium Chloride] | 5 | 5 | – | – | – | –
Cocobetaine [reference compound] | – | – | stable | mixture of thick | 150 mL | 100 mL
Macadamia-amidopropylbetaine [Example 4] | – | – | stable | uniform thick rich | 170 mL | 150 mL
Sodium Methyl Cocoyl Taurate [TAURANOL WS CONS] | – | – | stable | large bubbles | 200 mL | 150 mL
